{"sequences": {"note": "Sequences of proteins named here, by UniProt entry; tags and fusion partners are left off.", "UniProt Q14191, whole entry, looked up": "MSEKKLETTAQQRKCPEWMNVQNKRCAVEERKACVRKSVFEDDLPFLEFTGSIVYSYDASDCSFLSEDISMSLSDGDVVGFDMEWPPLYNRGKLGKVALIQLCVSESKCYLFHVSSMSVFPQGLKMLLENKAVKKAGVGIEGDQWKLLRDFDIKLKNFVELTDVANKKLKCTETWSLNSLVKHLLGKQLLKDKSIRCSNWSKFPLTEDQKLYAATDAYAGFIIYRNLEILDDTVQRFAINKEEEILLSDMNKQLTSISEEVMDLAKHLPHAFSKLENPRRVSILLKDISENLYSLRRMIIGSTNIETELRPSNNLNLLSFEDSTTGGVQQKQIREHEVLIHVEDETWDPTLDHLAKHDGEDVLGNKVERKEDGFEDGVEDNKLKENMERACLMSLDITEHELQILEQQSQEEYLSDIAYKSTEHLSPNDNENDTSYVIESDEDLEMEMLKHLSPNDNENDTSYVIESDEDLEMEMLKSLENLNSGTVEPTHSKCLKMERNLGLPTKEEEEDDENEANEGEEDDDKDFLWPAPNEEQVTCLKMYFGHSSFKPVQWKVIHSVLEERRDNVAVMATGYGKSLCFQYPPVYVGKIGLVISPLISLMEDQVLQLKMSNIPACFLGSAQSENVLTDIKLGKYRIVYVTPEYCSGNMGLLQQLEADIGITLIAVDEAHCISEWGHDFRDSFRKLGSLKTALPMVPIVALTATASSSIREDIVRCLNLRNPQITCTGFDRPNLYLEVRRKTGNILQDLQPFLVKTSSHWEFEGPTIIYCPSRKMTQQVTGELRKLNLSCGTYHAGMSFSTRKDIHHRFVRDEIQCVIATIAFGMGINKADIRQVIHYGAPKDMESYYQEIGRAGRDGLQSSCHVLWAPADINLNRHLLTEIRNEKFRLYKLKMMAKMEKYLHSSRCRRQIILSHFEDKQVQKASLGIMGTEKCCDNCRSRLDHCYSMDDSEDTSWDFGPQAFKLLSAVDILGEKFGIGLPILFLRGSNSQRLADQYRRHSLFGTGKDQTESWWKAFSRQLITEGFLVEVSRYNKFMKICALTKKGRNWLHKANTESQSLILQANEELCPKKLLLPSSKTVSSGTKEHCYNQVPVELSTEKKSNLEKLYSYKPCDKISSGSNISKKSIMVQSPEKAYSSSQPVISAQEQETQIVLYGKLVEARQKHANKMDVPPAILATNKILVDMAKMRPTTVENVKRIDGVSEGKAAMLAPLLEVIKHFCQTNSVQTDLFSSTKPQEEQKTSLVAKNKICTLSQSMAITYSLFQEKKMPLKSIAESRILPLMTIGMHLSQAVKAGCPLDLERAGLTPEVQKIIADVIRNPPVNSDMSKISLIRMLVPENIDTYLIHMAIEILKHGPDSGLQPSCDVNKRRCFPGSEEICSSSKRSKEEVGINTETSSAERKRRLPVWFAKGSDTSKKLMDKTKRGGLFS"}, "source": "PubChem BioAssay AID651768", "about": "(National Center for Advancing Translational Sciences (NCATS), 2012)", "note": "About 1,700 (0.47%) of roughly 360,000 compounds were called active. Inconclusive results, whose numbers are uncertain, are shown with a selection of clear calls. Calls come from the whole dose curve; as a rule, active = well fitted inhibition curve with a large enough effect; inconclusive = small, poorly fitted or top-dose-only effect; inactive = no such curve, though single readings can be large or run the other way. Where the call is inconclusive, the potency comes from a doubtful curve fit. % is set by controls: 0 for no effect and ±100 for the full control effect; potency is the fitted concentration of half-maximal effect."}
{"target": "Bifunctional 3'-5' exonuclease/ATP-dependent helicase WRN (Homo sapiens) (UniProt Q14191)", "assay": "qHTS for Inhibitors of WRN Helicase; note: nearly all actives have a fitted effect of over 55% in size", "conditions": "WRN helicase unwinding, fluorescent forked duplex, kinetic; activity change, negative = inhibition: at 114 µM (top of the series) unless noted", "description": "Inhibition of DNA repair is proposed as a strategy for combating cancer. Synthetic lethality is an approach that exploits preexisting DNA repair deficiencies in certain tumors to develop inhibitors of DNA repair pathways that compensate for the tumor-associated DNA repair deficiency. Because helicases play critical roles in the DNA damage response and in DNA repair, particularly in actively dividing and replicating cells, characterization of synthetic lethal relationships of DNA helicases may be of value in developing improved anticancer treatment strategies; moreover, small molecules that specifically target a given DNA helicase may be useful for understanding its role in cellular nucleic acid metabolism. The goal of this project is to identify small molecule, non-covalent chemical inhibitors of the Werner syndrome (WS) helicase (WRN), which plays an important role in cell proliferation, the replication stress response, and DNA repair. […] The WRN gene product that is defective in the chromosomal instability disorder has DNA helicase and exonuclease activities and interacts with a number of nuclear proteins to maintain genomic stability. We will employ an optimized high-throughput screening assay that utilizes a fluorescence intensity modulation scheme with a fluorophore and quencher positioned near one another within a duplex deoxyoligonucleotide that contains a single forked structure. After a high-throughput screen of the ~350,000-member Molecular Libraries Small Molecule Repository (MLSMR) collection, followed by data analysis and hit selection, a panel of confirmatory, as well as secondary and ternary, assays will be employed to identify high-confidence WRN inhibitors. Structure-activity relationships will be investigated for the top candidate inhibitor series through medchem expansion. These are the results of the primary screening campaign against the MLSMR. NIH Chemical Genomics Center [NCGC] NIH Molecular Libraries Probe Centers Network [MLPCN] MLPCN Grant: MH096530 Assay Submitter (PI): Robert Brosh, National Institute of Aging\nThree muL of reagents (buffer in columns 3 and 4 as negative controls; WRN at 20 nM final concentration in columns 1 and 2 as positive controls; columns 5-48 as test reactions) will be dispensed into a 1536-well Greiner black plate via solenoid-valve based nanoliter dispensers. Compounds (23 nL each in columns 5-48) and control (23 nL each in column 2 as dose-response) will be transferred via a Kalypsys pintool equipped with a 1536-pin array. Plates will be incubated for 15 min at room temperature, and then 1 µL of substrate (100 nM forked duplex oligonucleotide and 2 mM ATP final concentrations) will be added to start reaction, and plate will be transferred into a ViewLux high-throughput CCD imager where reaction progress is measured in kinetic mode using standard red-fluorescence optics (excitation filter 525 nm, emission filter 598 nm)."}
{"smiles": "COC(=O)C1=CN(CC2CCCO2)C=C(C(=O)OC)C1c1cccc(O)c1", "note": "(configuration not stated)", "Potency": "inconclusive: 25.1 µM [inhibitor, single point]"}
{"smiles": "Cc1cc(=O)oc2cc(OCC(=O)N3c4ccccc4NC(=O)C3(C)C)ccc12", "activity change, negative = inhibition": "inactive: -1.21% [at 11.6 µM]"}
{"smiles": "COc1ccccc1NC(=O)CSc1nc(O)cc(=O)n1-c1ccccc1OC", "activity change, negative = inhibition": "inactive: -24.3%"}
{"smiles": "CCOc1cc(/C=C2/SC(=S)N(Cc3ccccc3)C2=O)ccc1O", "Potency": "active: 35.5 µM"}
{"smiles": "Cc1ccc2oc(-c3cccc(NC(=S)NC(=O)/C=C/c4ccco4)c3)nc2c1", "Potency": "inconclusive: 79.4 µM [inhibitor, partial curve]"}
{"smiles": "CCNC(=O)CC1C(=O)N(c2ccc(F)cc2)C(=O)N1Cc1ccc(OC)cc1", "note": "(configuration not stated)", "activity change, negative = inhibition": "inactive: -8.87%"}
{"smiles": "Cc1cc(=O)oc2cc(OC(C)C(=O)NCCc3ccc(S(N)(=O)=O)cc3)ccc12", "note": "(configuration not stated)", "activity change, negative = inhibition": "inactive: 6.34%"}
{"smiles": "O=C(c1cccnc1)N(c1cc2sc(=O)oc2c2ccccc12)S(=O)(=O)c1ccccc1", "Potency": "active: 20 µM"}
{"smiles": "Cc1cccc(CSCc2ccc(C(=O)O)o2)c1", "activity change, negative = inhibition": "inactive: -6.84%"}
{"smiles": "Cc1cc(NS(=O)(=O)c2ccc(NC(=O)/C=C/c3cccc(Cl)c3)cc2)no1", "Potency": "inconclusive: 79.4 µM [inhibitor, partial curve]"}
{"smiles": "CCOC(=O)CN=C(NS(=O)(=O)c1ccc(Cl)cc1)c1ccccc1", "Potency": "inconclusive: 70.8 µM [inhibitor, single point]"}
{"smiles": "O=C(O)/C=C/C(=O)NNC(=O)c1cc(-c2ccccc2)n[nH]1", "Potency": "inconclusive: 79.4 µM [inhibitor, partial curve]"}
{"smiles": "Cc1ccc(NC(=O)CN(C)Cc2c(O)ccc3ccccc23)cc1", "Potency": "inconclusive: 56.2 µM [inhibitor, partial curve]"}
{"smiles": "C#CCOc1ccc(/C=C2/C(=O)ON=C2C)cc1Br", "Potency": "inconclusive: 20 µM [inhibitor, full curve]"}
{"smiles": "O=C(/C=C/c1ccc(F)cc1)NC(=S)N1CCN(Cc2ccccc2)CC1", "Potency": "inconclusive: 5.62 µM [inhibitor, full curve, poor fit]"}
{"smiles": "Cc1cccc(/C=N/n2c(C3CCCCC3)n[nH]c2=S)c1", "activity change, negative = inhibition": "inactive: 1.98%"}
{"smiles": "OCCNCC(O)CN1c2ccccc2Sc2ccccc21", "note": "(configuration not stated)", "Potency": "inconclusive: 10 µM [inhibitor, full curve, poor fit]"}
{"smiles": "CC(NCC1COc2ccccc2O1)C(=O)NCc1ccccc1", "note": "(configuration not stated)", "Potency": "inconclusive: 20 µM [inhibitor, single point]"}
{"smiles": "O=C(Cn1cncc1-c1ccc([N+](=O)[O-])cc1)Nc1ccccc1F", "Potency": "inconclusive: 14.1 µM [inhibitor, partial curve]"}
{"smiles": "Cc1ccc(Cl)cc1NC(=O)[C@@H]1CCC(=O)N1C1OC(=O)c2ccccc21", "note": "(some centres not stated)", "activity change, negative = inhibition": "inactive: -1.81%"}
{"smiles": "CCN1C(=O)/C(=C/C=C2/SCCN2C)SC1=S", "activity change, negative = inhibition": "inactive: -14.4%"}
{"smiles": "O=C(Cc1ccccc1)NCC1CCCO1", "note": "(configuration not stated)", "activity change, negative = inhibition": "inactive: -2.66%"}
{"smiles": "Cc1cc(C)c2c(N)c3cccc(C)c3nc2n1", "activity change, negative = inhibition": "inactive: 0.248%"}
{"smiles": "O=C(O)CCCCn1c(SCC(=O)Nc2ccccc2C(F)(F)F)nc2ccsc2c1=O", "activity change, negative = inhibition": "inactive: 0.179%"}
{"smiles": "NC1=NC(=O)/C(=C/c2cn(Cc3ccccc3)c3ccccc23)S1", "Potency": "inconclusive: 39.8 µM [inhibitor, single point]"}
{"smiles": "CNc1ccccc1C(C)(C)c1cc(-c2cccc(Br)c2)no1", "Potency": "active: 79.4 µM"}
{"smiles": "CN(CC(=O)Nc1cccc(F)c1)C(=O)CSc1ccccc1", "Potency": "inconclusive: 25.1 µM [inhibitor, full curve, poor fit]"}
{"smiles": "CCOC(=O)C1CCCN(CC(=O)c2ccc(F)cc2)C1", "note": "(configuration not stated)", "Potency": "inconclusive: 17.8 µM [inhibitor, partial curve, poor fit]"}
{"smiles": "CC(C)C(=O)OCc1cn(-c2ccc(Cl)c(Cl)c2)nn1", "activity change, negative = inhibition": "inactive: -24.4%"}
{"smiles": "O=C1/C(=C\\c2ccc(O)c(O)c2)C(c2ccccc2)=NN1c1ccccc1", "Potency": "inconclusive: 56.2 µM [inhibitor, partial curve]"}
{"smiles": "COc1cc(/C=C2\\CC/C(=C\\c3cc(OC)c(O)c(OC)c3)C2=O)cc(OC)c1O", "Potency": "active: 11.2 µM"}
{"smiles": "CCOc1ccc(Cc2c(C)[nH]c3ccc(C(=O)O)cc3c2=S)cc1", "Potency": "inconclusive: 17.8 µM [inhibitor, partial curve]"}
{"smiles": "COc1ccc(NC(=O)CN(c2ccc([N+](=O)[O-])cc2)S(=O)(=O)c2ccccc2)c(OC)c1", "Potency": "inconclusive: 10 µM [inhibitor, partial curve]"}
{"smiles": "CC(C)N1CCC(C)(C(=O)Nc2cccc3c2CCCC3)C1", "note": "(configuration not stated)", "activity change, negative = inhibition": "inactive: 0.135%"}
{"smiles": "O=C(NCCCCCCCCNC(=O)c1cccc2ccccc12)c1cccc2ccccc12", "Potency": "inconclusive: 25.1 µM [inhibitor, single point]"}
{"smiles": "COc1ccc(/C=C/C(=O)Nc2ccc(S(=O)(=O)Nc3onc(C)c3C)cc2)cc1OC", "Potency": "inconclusive: 28.2 µM [inhibitor, partial curve]"}
{"smiles": "O=S(=O)(c1ccc2nnn(O)c2c1)N1CCOCC1", "activity change, negative = inhibition": "inactive: 8.77%"}
